Tested on: castrate Sprague-Dawley male rats
Assay: Androgenic activity, Hershberger test (ventral prostate weight)
Assay type: in vivo, rat
Settings: oral Hershberger test; Y against log (x)
Procedure: The androgenic activity was tested as follows (see, Hershberger et al., Proc. Soc. Exptl. Biol. Med., 83: 175-180 (1953)). Immature (approximately 21 day old) male rats of the Sprague-Dawley strain were orchidectomized under METOFANE® anesthesia and randomly assigned to groups of ten animals for each dose level of test material and vehicle controls. Animals were maintained under standard conditions of housing and had free access to food and water. Illumination was controlled for 14-hour periods of light and 10 hours of darkness. Test compounds were dissolved in 10% ethanol/sesame oil and administered by gavage (oral) or subcutaneous injection daily for seven consecutive days starting on the day of surgery. Animals were sacrificed 24 hours after the last dose and the ventral prostate and seminal vesicles excised, cleaned of fat and connective tissue, blotted on moist filter paper and weighed to the nearest 0.1 mg. Ventral prostate weight was used as the endpoint because ventral prostate is the more sensitive organ to androgenic stimulation.
Statistical analysis was performed by conventional methods using a PROPHET data management system operating on SUN Microsystems OS 4.1.1 (see e.g., Bliss, Cl (1952) The Statistics of Bioassay, New York, Academic Press; Hollister, C (1988), Nucleic Acids Research, 16:1873-1875.
Each data point represents the mean (n=10) and standard error of the mean (SEM) prostate weight for each dose level. The potency ratio and 95% confidence index are set forth below.

Structure (SMILES)	Fitted Lines (ventral prostate weight versus log dose)
CCCCCCCCCCOC(=O)O[C@H]1CC[C@H]2[C@H]3[C@H]([C@@H](C)C[C@]12C)[C@H]1CCC(=O)C=C1C[C@H]3C [CDB-4719, 17β-Decyloxycarbonyloxy-7α,11β-dimethylestr-4-en-3-one]	Y = 44.41 log (x) + 53.7
C[C@]12CCC(=O)C=C1CC[C@@H]1[C@@H]2CC[C@@]2(C)[C@H]1CC[C@]2(C)O [CDB-110B, methyltestosterone, reference compound]	Y = 27.45 log (x) + 31.77
COC(=O)O[C@H]1CC[C@H]2[C@H]3[C@H]([C@@H](C)C[C@]12C)[C@H]1CCC(=O)C=C1C[C@H]3C [CDB-4718, 17β-Methoxycarbonyloxy-7α,11β-dimethylestr-4-en-3-one]	Y = 31.31 log (x) + 41.95

— US7820642B2, “Nandrolone 17β-carbonates” (The United States of America as represented by the …, priority 2005, dated 2010)
